PubChem BioAssay AID686943, Drosophila RNAi Screening Center | 2013
The deposit covers about 23,000 reagents; shown is a random part of those with a known target gene and a result. 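Extra replicates exist only for a retested subset of genes; insulin dose and duration not given; both raised and lowered dpERK matter.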 Names joined by + are all predicted targets of the reagent. Not all columns of the deposit are shown. Not stated in the record: the amount of reagent, the time to read-out.

- Assay: 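Search across the genome for regulators of signalling from receptor tyrosine kinase to ERK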 (primary screen)
- Cell system: Drosophila S2R+ haemocyte-like cells expressing YFP-tagged ERK (Rolled)
- Reagents: long dsRNA against Drosophila genes
- Challenge: insulin stimulation versus unstimulated cells; dose and duration not given
- Detection: 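Antibody staining for doubly phosphorylated ERK divided by ERK-YFP signal, as plate z-scores, in insulin-treated and untreated cells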
- Direction: replicate 1, z-score of dpERK with insulin and replicate 2, z-score of dpERK with insulin: higher = more active ERK per ERK-YFP after insulin

Silencing of CG30395 [DRSC03896] resulted in: replicate 1, z-score of dpERK with insulin 0.64; replicate 2, z-score of dpERK with insulin -0.21. Silencing of Remo (Remoulade) [DRSC19710] resulted in: replicate 1, z-score of dpERK with insulin -0.96; replicate 2, z-score of dpERK with insulin -0.81. Depletion of Sox15 (Sox box protein 15) [DRSC07555] resulted in: replicate 1, z-score of dpERK with insulin -0.18; replicate 2, z-score of dpERK with insulin -1.35. Knock-down of CG42597 [DRSC03681] resulted in: replicate 1, z-score of dpERK with insulin -0.44; replicate 2, z-score of dpERK with insulin 0.06. Silencing of Sms (Spermine synthase) [DRSC10408] resulted in: replicate 1, z-score of dpERK with insulin 1.14; replicate 2, z-score of dpERK with insulin 0.27. drd (drop dead) [DRSC19343] scored replicate 1, z-score of dpERK with insulin 0.28; replicate 2, z-score of dpERK with insulin 0.04.

Against drd (drop dead) [DRSC21466], the values are replicate 1, z-score of dpERK with insulin 0.12; replicate 2, z-score of dpERK with insulin 1. For Arc2 (Activity-regulated cytoskeleton associated protein 2) [DRSC06436], the values are replicate 1, z-score of dpERK with insulin -0.77; replicate 2, z-score of dpERK with insulin 0.26. For CR33294 (pseudo) [DRSC22950], the entry reads replicate 1, z-score of dpERK with insulin 0.38; replicate 2, z-score of dpERK with insulin -0.26. Knock-down of CG4995 [DRSC02801] came out at: replicate 1, z-score of dpERK with insulin 0.69; replicate 2, z-score of dpERK with insulin 0.08. CG13937 [DRSC08406] gave replicate 1, z-score of dpERK with insulin -0.65; replicate 2, z-score of dpERK with insulin -0.49. For mle (maleless) [DRSC04921] the deposit lists replicate 1, z-score of dpERK with insulin -0.52; replicate 2, z-score of dpERK with insulin 0.64.

Sp212 (Serine-peptidase 212) [DRSC22930] scored replicate 1, z-score of dpERK with insulin 0.28; replicate 2, z-score of dpERK with insulin 0.47. With knock-down of CG14861 [DRSC14984], the record shows replicate 1, z-score of dpERK with insulin -0.54; replicate 2, z-score of dpERK with insulin -1.6.

Ordered by “replicate 1, z-score of dpERK with insulin” (ascending): 4 of the entries above
Arc2 (Activity-regulated cytoskeleton associated protein 2) [DRSC06436] | replicate 1, z-score of dpERK with insulin: -0.77; replicate 2, z-score of dpERK with insulin: 0.26
CG13937 [DRSC08406] | replicate 1, z-score of dpERK with insulin: -0.65; replicate 2, z-score of dpERK with insulin: -0.49
CR33294 (pseudo) [DRSC22950] | replicate 1, z-score of dpERK with insulin: 0.38; replicate 2, z-score of dpERK with insulin: -0.26
CG4995 [DRSC02801] | replicate 1, z-score of dpERK with insulin: 0.69; replicate 2, z-score of dpERK with insulin: 0.08

Additional records follow.
CR14117 (pseudo) [DRSC10121] showed replicate 1, z-score of dpERK with insulin 0.4; replicate 2, z-score of dpERK with insulin 0.58. Silencing of CG7168 [DRSC16208] came out at: replicate 1, z-score of dpERK with insulin 0.32; replicate 2, z-score of dpERK with insulin 0.36. With knock-down of VhaAC45RP (VhaAC45-related protein) [DRSC15423], the record shows replicate 1, z-score of dpERK with insulin -0.01; replicate 2, z-score of dpERK with insulin 0.71. HmgZ (HMG protein Z) [DRSC03888] scored replicate 1, z-score of dpERK with insulin 0.46; replicate 2, z-score of dpERK with insulin 1.89. HmgZ (HMG protein Z) [DRSC04620] scored replicate 1, z-score of dpERK with insulin -0.79; replicate 2, z-score of dpERK with insulin -0.23. After knock-down of CG31223 [DRSC15115], the record shows replicate 1, z-score of dpERK with insulin 0.33; replicate 2, z-score of dpERK with insulin -0.22.

bru1 (bruno 1) [DRSC01234] gave replicate 1, z-score of dpERK with insulin -7.16; replicate 2, z-score of dpERK with insulin -5.4. With knock-down of bru1 (bruno 1) [DRSC01236], the record shows replicate 1, z-score of dpERK with insulin -0.79; replicate 2, z-score of dpERK with insulin -2.09. Depletion of bru1 (bruno 1) [DRSC01237] resulted in: replicate 1, z-score of dpERK with insulin 0.47; replicate 2, z-score of dpERK with insulin -0.18. Silencing of bru1 (bruno 1) [DRSC01238] gave: replicate 1, z-score of dpERK with insulin 1.28; replicate 2, z-score of dpERK with insulin -0.04. After knock-down of bru1 (bruno 1) [DRSC03485], the record shows replicate 1, z-score of dpERK with insulin 0.52; replicate 2, z-score of dpERK with insulin -0.16. CG1688 [DRSC05934] gave replicate 1, z-score of dpERK with insulin 1.1; replicate 2, z-score of dpERK with insulin 0.54.

CG34354 [DRSC13863] showed replicate 1, z-score of dpERK with insulin 0.09; replicate 2, z-score of dpERK with insulin 0.2. With knock-down of CG34354 [DRSC14515], the screen gave replicate 1, z-score of dpERK with insulin -0.67; replicate 2, z-score of dpERK with insulin -3.17. For CG34354 [DRSC14558] the deposit lists replicate 1, z-score of dpERK with insulin -0.31; replicate 2, z-score of dpERK with insulin -3.42. For CG34354 [DRSC15645], the entry reads replicate 1, z-score of dpERK with insulin 1.32; replicate 2, z-score of dpERK with insulin 0. CG42374 + Mettl5 [DRSC11085] scored replicate 1, z-score of dpERK with insulin -0.46; replicate 2, z-score of dpERK with insulin -0.51. After knock-down of nsr (novel spermatogenesis regulator) [DRSC04427] the results were replicate 1, z-score of dpERK with insulin 0.08; replicate 2, z-score of dpERK with insulin 0.19.

After knock-down of nsr (novel spermatogenesis regulator) [DRSC22806] the results were replicate 1, z-score of dpERK with insulin 0.11; replicate 2, z-score of dpERK with insulin -0.13. LSm1 (Like Sm 1) [DRSC04458] scored replicate 1, z-score of dpERK with insulin -0.52; replicate 2, z-score of dpERK with insulin 0.09. Depletion of drpr (draper) [DRSC08143] resulted in: replicate 1, z-score of dpERK with insulin 0; replicate 2, z-score of dpERK with insulin 0.14. For drpr (draper) [DRSC08525], the entry reads replicate 1, z-score of dpERK with insulin -0.16; replicate 2, z-score of dpERK with insulin 0.01. Against CG17721 [DRSC15253] the deposit lists replicate 1, z-score of dpERK with insulin 0.41; replicate 2, z-score of dpERK with insulin 0.31. Grl40a (Gustatory receptor-like 40a) [DRSC03677] gave replicate 1, z-score of dpERK with insulin 0.62; replicate 2, z-score of dpERK with insulin -0.16.

Against CG13321 [DRSC06358], the entry reads replicate 1, z-score of dpERK with insulin -0.13; replicate 2, z-score of dpERK with insulin 0.34. MED25 (Mediator complex subunit 25) [DRSC14483] scored replicate 1, z-score of dpERK with insulin -1.69; replicate 2, z-score of dpERK with insulin -3.61.
